According to the supplement of paper PMC12067093, “Discovery and optimisation of a covalent ligand for TRIM25 and its application to targeted protein ubiquitination” (Chemical Science, 2025):
The list shows a part of the results.

Chains of the proteins cited; added tags and fusions are not shown. Lines headed by an entry give the natural chain unless they say otherwise; changes in a name come on top.
UniProt Q00796: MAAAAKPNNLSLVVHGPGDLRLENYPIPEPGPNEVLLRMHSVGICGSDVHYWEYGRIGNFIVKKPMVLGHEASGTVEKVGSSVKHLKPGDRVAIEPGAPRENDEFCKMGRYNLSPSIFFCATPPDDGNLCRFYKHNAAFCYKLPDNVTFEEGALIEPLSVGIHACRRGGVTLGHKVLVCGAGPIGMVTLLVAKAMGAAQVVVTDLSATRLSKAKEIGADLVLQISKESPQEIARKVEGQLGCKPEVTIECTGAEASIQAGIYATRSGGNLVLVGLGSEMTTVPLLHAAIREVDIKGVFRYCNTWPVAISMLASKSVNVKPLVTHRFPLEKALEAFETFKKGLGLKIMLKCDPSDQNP
UniProt O15270: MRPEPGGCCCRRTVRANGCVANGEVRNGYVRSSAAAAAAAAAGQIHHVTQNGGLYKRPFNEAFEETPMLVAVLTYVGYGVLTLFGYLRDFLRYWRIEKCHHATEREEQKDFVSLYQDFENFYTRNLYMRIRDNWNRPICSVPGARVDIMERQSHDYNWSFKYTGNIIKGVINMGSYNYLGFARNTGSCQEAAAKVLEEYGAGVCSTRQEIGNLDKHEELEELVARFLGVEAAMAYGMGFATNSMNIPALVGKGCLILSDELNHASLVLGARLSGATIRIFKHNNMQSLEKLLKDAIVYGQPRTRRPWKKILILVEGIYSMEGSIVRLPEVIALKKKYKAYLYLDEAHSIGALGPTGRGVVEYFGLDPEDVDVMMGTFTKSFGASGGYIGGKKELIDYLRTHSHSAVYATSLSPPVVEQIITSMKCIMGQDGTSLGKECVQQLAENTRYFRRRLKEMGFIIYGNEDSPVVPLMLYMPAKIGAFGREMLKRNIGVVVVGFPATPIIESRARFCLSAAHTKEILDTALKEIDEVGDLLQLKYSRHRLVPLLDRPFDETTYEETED
UniProt Q5T280: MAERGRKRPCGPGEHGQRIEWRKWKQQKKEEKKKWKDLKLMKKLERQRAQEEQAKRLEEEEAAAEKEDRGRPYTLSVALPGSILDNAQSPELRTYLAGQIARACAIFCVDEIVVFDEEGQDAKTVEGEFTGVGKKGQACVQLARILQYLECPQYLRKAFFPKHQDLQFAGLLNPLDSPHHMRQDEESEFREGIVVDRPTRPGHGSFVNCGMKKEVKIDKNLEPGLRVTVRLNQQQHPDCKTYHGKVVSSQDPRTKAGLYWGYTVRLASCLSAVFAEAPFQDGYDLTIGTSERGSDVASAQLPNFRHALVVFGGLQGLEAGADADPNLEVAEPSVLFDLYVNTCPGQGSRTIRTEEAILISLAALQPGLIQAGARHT
UniProt P55769: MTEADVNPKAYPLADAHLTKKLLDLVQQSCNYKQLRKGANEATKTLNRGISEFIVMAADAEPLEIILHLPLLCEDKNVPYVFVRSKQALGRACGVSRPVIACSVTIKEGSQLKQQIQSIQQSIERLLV
UniProt P23497: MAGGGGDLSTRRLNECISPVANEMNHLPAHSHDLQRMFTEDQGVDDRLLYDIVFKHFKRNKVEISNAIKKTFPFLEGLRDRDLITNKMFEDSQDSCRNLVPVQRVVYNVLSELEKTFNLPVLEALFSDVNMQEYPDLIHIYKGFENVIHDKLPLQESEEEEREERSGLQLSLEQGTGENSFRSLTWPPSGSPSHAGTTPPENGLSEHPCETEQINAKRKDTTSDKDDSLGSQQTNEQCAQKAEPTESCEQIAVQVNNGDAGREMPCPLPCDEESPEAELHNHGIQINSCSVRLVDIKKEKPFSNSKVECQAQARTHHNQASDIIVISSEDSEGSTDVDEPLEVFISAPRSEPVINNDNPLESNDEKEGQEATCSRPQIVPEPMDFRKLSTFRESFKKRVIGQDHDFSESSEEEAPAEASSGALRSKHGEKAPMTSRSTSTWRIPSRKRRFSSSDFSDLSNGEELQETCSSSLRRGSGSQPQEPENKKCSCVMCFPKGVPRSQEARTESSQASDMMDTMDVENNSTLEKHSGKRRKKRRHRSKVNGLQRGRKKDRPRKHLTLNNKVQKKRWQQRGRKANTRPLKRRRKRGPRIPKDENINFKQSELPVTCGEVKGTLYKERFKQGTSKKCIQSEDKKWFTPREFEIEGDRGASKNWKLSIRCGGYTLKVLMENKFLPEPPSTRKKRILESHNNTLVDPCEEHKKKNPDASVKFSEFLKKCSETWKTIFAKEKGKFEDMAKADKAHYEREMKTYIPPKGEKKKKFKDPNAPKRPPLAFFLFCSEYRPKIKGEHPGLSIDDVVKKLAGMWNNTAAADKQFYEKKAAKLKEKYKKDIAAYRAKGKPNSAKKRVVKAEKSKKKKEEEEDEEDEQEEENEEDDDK
UniProt Q9HB58: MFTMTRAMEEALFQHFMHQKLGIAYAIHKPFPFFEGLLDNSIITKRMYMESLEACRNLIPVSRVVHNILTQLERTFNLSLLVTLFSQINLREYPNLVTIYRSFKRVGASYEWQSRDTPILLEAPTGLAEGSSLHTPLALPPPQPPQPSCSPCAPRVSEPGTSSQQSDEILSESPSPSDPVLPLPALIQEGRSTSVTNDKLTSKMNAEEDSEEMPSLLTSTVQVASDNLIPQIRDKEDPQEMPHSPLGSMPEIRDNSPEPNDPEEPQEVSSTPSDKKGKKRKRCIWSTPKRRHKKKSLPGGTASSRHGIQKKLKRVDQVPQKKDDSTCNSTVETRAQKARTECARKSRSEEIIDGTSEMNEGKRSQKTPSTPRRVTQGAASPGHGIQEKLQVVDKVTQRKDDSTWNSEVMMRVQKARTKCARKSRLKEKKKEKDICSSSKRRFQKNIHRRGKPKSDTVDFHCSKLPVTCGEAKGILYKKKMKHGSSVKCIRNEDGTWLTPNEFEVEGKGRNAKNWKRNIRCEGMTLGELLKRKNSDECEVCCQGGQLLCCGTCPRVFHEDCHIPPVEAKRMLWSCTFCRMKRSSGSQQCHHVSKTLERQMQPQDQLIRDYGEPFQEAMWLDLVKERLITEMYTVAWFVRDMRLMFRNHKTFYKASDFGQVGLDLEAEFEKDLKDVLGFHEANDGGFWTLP
UniProt P00441, whole entry, looked up: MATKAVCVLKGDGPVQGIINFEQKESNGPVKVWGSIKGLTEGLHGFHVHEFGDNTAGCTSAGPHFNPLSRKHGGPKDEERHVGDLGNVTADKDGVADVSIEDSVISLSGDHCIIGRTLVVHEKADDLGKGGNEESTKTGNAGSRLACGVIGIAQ
UniProt P09132: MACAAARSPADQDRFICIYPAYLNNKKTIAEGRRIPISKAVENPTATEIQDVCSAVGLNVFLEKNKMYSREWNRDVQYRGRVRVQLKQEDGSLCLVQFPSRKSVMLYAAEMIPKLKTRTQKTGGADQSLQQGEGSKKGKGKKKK
UniProt Q9UNH6: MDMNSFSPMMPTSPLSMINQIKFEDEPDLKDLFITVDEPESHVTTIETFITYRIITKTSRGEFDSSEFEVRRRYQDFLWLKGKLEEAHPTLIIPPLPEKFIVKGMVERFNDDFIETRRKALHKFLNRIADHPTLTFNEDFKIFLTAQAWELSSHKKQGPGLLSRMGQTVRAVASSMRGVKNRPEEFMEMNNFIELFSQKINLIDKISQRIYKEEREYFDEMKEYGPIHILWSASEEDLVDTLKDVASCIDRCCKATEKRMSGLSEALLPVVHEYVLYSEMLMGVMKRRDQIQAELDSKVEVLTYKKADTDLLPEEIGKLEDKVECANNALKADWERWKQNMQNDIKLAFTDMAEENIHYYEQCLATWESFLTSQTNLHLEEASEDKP
UniProt Q9Y5X2: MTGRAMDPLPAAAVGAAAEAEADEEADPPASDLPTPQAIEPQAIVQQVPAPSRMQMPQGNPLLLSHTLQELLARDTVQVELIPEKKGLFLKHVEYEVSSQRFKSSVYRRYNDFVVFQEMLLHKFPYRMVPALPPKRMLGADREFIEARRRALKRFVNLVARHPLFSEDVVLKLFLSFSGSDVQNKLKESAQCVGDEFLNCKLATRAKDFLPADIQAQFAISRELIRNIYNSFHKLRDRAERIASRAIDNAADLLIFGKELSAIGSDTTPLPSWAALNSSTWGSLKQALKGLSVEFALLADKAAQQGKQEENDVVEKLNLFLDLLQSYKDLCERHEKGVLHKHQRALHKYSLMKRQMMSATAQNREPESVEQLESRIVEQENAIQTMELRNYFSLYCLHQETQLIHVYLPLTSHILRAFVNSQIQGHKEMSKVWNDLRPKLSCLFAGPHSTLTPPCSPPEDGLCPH
UniProt P18583: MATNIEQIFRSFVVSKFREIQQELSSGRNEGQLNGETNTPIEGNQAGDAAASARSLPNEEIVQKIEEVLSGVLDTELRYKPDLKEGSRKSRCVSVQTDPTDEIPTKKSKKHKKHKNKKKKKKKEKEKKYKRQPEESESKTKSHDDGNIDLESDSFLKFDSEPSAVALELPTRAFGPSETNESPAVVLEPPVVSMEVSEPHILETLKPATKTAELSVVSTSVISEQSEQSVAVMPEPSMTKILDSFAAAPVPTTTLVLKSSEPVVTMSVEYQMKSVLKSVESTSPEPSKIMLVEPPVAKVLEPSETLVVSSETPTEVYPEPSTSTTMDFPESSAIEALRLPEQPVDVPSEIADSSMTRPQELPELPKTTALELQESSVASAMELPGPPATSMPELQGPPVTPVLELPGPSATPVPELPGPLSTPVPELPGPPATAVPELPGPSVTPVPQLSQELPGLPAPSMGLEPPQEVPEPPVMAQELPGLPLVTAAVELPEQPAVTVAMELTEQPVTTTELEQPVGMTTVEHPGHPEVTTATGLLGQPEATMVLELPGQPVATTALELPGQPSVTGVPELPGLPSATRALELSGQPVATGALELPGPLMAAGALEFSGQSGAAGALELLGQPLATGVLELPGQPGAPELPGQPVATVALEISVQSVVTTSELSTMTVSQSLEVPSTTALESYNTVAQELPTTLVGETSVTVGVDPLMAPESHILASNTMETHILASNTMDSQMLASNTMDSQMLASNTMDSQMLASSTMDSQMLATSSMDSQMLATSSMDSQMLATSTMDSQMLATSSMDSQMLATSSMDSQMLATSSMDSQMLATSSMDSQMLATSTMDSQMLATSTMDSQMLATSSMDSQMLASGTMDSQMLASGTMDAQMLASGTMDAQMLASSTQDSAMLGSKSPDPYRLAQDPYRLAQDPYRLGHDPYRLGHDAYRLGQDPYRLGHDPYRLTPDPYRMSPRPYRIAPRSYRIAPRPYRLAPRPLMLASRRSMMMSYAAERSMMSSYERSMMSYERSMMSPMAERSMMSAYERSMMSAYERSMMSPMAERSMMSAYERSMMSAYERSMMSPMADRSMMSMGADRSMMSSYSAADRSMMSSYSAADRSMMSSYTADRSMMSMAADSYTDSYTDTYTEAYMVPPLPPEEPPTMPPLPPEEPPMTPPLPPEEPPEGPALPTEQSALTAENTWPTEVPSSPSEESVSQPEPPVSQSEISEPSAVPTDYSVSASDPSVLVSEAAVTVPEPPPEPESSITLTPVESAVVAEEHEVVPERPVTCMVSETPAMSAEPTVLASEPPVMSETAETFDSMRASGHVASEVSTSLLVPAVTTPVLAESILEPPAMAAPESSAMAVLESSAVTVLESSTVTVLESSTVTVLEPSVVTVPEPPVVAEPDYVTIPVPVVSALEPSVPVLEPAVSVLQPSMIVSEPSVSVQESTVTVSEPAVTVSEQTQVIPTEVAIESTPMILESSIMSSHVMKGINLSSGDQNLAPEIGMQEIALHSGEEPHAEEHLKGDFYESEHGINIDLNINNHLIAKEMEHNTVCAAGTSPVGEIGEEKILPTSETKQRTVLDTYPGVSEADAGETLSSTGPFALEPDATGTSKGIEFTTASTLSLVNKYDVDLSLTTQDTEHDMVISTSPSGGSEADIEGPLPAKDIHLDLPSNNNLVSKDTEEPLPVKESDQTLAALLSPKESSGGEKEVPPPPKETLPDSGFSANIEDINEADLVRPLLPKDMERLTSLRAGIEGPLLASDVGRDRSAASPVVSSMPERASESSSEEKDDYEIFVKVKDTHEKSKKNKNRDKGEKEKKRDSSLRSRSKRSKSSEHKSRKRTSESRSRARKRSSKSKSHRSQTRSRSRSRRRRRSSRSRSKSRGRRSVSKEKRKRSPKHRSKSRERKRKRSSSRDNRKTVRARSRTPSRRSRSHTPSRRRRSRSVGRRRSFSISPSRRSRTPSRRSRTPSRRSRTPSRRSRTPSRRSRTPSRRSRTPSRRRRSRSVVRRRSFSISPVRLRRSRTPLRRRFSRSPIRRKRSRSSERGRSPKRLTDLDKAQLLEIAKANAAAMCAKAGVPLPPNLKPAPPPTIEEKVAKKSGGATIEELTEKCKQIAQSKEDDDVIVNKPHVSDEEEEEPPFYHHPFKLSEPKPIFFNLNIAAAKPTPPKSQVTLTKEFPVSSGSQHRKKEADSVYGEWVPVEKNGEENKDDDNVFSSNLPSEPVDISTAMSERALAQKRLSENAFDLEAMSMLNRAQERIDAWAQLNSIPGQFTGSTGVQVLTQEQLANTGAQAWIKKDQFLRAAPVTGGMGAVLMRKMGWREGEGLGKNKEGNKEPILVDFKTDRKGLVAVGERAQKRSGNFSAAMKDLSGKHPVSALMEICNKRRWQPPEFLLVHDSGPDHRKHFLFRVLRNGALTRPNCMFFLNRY

Compound: CC1Cc2ccccc2N1C(=O)C1CCCN(C1)C(=O)CCl (mixture of isomers) [TRIM25 ligand 11 (diastereomer mixture)]
Assay: probe-labelled cysteine peptide fold change vs DMSO (competition) (log2 fold change); higher = less target engagement (more negative = stronger competition)
Details: THP-1, incubation time: 4 h
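Note: competitive chemoproteomic profiling in live THP-1 cells with an iodoacetamide desthiobiotin (IA-DTB) probe, comparing probe-labelled peptide intensities in compound-treated cells against DMSO-treated controls.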

SPTAN1_Q13813_1454_DCEQAENWMAAR (UniProt Q13813)
probe-labelled cysteine peptide fold change (10 µM): -0.103 | probe-labelled cysteine peptide fold change (50 µM): -0.0112

SNX1_Q13596_318_LQEVECEEQR (UniProt Q13596)
probe-labelled cysteine peptide fold change (10 µM): 0.0284 | probe-labelled cysteine peptide fold change (50 µM): -0.00471

SPTAN1_Q13813_2233_TYLLDGSCMVEESGTLESQLEATK (UniProt Q13813)
probe-labelled cysteine peptide fold change (10 µM): 0.147 | probe-labelled cysteine peptide fold change (50 µM): -0.263

SORD_Q00796_179_VLVCGAGPIGMVTLLVAK (UniProt Q00796)
probe-labelled cysteine peptide fold change (10 µM): -0.904 | probe-labelled cysteine peptide fold change (50 µM): -0.915

SPTLC2_O15270_139_IRDNWNRPICSVPGAR (UniProt O15270)
probe-labelled cysteine peptide fold change (10 µM): -0.185 | probe-labelled cysteine peptide fold change (50 µM): 0.0938

SPTBN1_Q01082_964_DALLSALSIQNYHLECNETK (UniProt Q01082)
probe-labelled cysteine peptide fold change (10 µM): 0.143 | probe-labelled cysteine peptide fold change (50 µM): 0.206

SNTB1_Q13884_515_DGEIQLDLHSCPKPIVFIIHSFLSAK (UniProt Q13884)
probe-labelled cysteine peptide fold change (10 µM): -0.207 | probe-labelled cysteine peptide fold change (50 µM): 0.302

SPOUT1_Q5T280_10_RPCGPGEHGQR (UniProt Q5T280)
probe-labelled cysteine peptide fold change (10 µM): 0.168 | probe-labelled cysteine peptide fold change (50 µM): -0.0136

SNX6_Q9UNH7_348_DVLQAETSQQLCCQK (UniProt Q9UNH7)
probe-labelled cysteine peptide fold change (10 µM): 0.0919 | probe-labelled cysteine peptide fold change (50 µM): 0.129

SPATS2_Q86XZ4_280_QAFAELESCLMDR (UniProt Q86XZ4)
probe-labelled cysteine peptide fold change (10 µM): -0.0871 | probe-labelled cysteine peptide fold change (50 µM): 0.149

SPATA5_Q8NB90_574_VLCNEAGLCALRR (UniProt Q8NB90)
probe-labelled cysteine peptide fold change (10 µM): -0.161 | probe-labelled cysteine peptide fold change (50 µM): -0.0738

SNU13_P55769_30_LLDLVQQSCNYK (UniProt P55769)
probe-labelled cysteine peptide fold change (10 µM): -0.094 | probe-labelled cysteine peptide fold change (50 µM): -0.0737

SP100_P23497_248_AEPTESCEQIAVQVNNGDAGR (UniProt P23497)
probe-labelled cysteine peptide fold change (10 µM): -0.242 | probe-labelled cysteine peptide fold change (50 µM): 0.017

SPOUT1_Q5T280_139_KGQACVQLAR (UniProt Q5T280)
probe-labelled cysteine peptide fold change (10 µM): -0.0984 | probe-labelled cysteine peptide fold change (50 µM): -0.0844

SORL1_Q92673_1158_CDLEDDCGDNSDESHCEMHQCR (UniProt Q92673)
probe-labelled cysteine peptide fold change (10 µM): -0.222 | probe-labelled cysteine peptide fold change (50 µM): -0.111

SPATS2L_Q9NUQ6_263_AAFAELHNCIIDK (UniProt Q9NUQ6)
probe-labelled cysteine peptide fold change (10 µM): 0.126 | probe-labelled cysteine peptide fold change (50 µM): -0.00451

SRI_P30626_75_CLTQSGIAGGYKPFNLETCR (UniProt P30626)
probe-labelled cysteine peptide fold change (10 µM): 0.0396 | probe-labelled cysteine peptide fold change (50 µM): -0.0761

SP110_Q9HB58_327_DDSTCNSTVETR (UniProt Q9HB58)
probe-labelled cysteine peptide fold change (10 µM): 0.0292 | probe-labelled cysteine peptide fold change (50 µM): -0.106

SRP54_P61011_136_TCLICADTFR (UniProt P61011)
probe-labelled cysteine peptide fold change (10 µM): -0.0315 | probe-labelled cysteine peptide fold change (50 µM): 0.0326

SOD1_P00441_7_AVCVLK (UniProt P00441)
probe-labelled cysteine peptide fold change (10 µM): -0.114 | probe-labelled cysteine peptide fold change (50 µM): 0.117

SRP19_P09132_53_AVENPTATEIQDVCSAVGLNVFLEK (UniProt P09132)
probe-labelled cysteine peptide fold change (10 µM): -0.249 | probe-labelled cysteine peptide fold change (50 µM): -0.0881

SPR_P35270_159_TVVNISSLCALQPFK (UniProt P35270)
probe-labelled cysteine peptide fold change (10 µM): 0.0343 | probe-labelled cysteine peptide fold change (50 µM): -0.0945

SPART_Q8N0X7_504_VSQFLVDGVCTVANCVGK (UniProt Q8N0X7)
probe-labelled cysteine peptide fold change (10 µM): 0.0256 | probe-labelled cysteine peptide fold change (50 µM): 0.0184

SNX29_Q8TEQ0_44_VTCLCAQFEAVLQHGLK (UniProt Q8TEQ0)
probe-labelled cysteine peptide fold change (10 µM): 0.0246 | probe-labelled cysteine peptide fold change (50 µM): 0.0548

SP110_Q9HB58_468_LPVTCGEAK (UniProt Q9HB58)
probe-labelled cysteine peptide fold change (10 µM): -0.149 | probe-labelled cysteine peptide fold change (50 µM): -0.181

SNX7_Q9UNH6_325_KADTDLLPEEIGKLEDKVECANNALK (UniProt Q9UNH6)
probe-labelled cysteine peptide fold change (10 µM): -0.303 | probe-labelled cysteine peptide fold change (50 µM): -0.442

SNX7_Q9UNH6_325_VECANNALK (UniProt Q9UNH6)
probe-labelled cysteine peptide fold change (10 µM): 0.134 | probe-labelled cysteine peptide fold change (50 µM): 0.125

SNX8_Q9Y5X2_200_ESAQCVGDEFLNCK (UniProt Q9Y5X2)
probe-labelled cysteine peptide fold change (10 µM): -0.145 | probe-labelled cysteine peptide fold change (50 µM): -0.286

SRP19_P09132_94_QEDGSLCLVQFPSR (UniProt P09132)
probe-labelled cysteine peptide fold change (10 µM): 0.342 | probe-labelled cysteine peptide fold change (50 µM): 0.271

SRP19_P09132_17_FICIYPAYLNNKK (UniProt P09132)
probe-labelled cysteine peptide fold change (10 µM): -0.268 | probe-labelled cysteine peptide fold change (50 µM): -0.125

SON_P18583_92_CVSVQTDPTDEIPTKK (UniProt P18583)
probe-labelled cysteine peptide fold change (10 µM): -0.114 | probe-labelled cysteine peptide fold change (50 µM): -0.537

SRP68_Q9UHB9_586_QANLVHFPPGFQPIPCKPLFFDLALNHVAFPPLEDKLEQK (UniProt Q9UHB9)
probe-labelled cysteine peptide fold change (10 µM): -0.375 | probe-labelled cysteine peptide fold change (50 µM): -0.439

SOD1_P00441_112_DGVADVSIEDSVISLSGDHCIIGR (UniProt P00441)
probe-labelled cysteine peptide fold change (10 µM): -0.0836 | probe-labelled cysteine peptide fold change (50 µM): -0.171

SRGN_P10124_40+49_CNPDSNSANCLEEK (UniProt P10124)
probe-labelled cysteine peptide fold change (10 µM): 0.0607 | probe-labelled cysteine peptide fold change (50 µM): -0.412

SPTLC2_O15270_204_VLEEYGAGVCSTR (UniProt O15270)
probe-labelled cysteine peptide fold change (10 µM): 0.143 | probe-labelled cysteine peptide fold change (50 µM): 0.101

SP1_P08047_663_WHTGERPFMCTWSYCGK (UniProt P08047)
probe-labelled cysteine peptide fold change (10 µM): -0.0192 | probe-labelled cysteine peptide fold change (50 µM): -0.0115

SPAG5_Q96R06_420_HSTSETEQLLCGRPPDLTALSR (UniProt Q96R06)
probe-labelled cysteine peptide fold change (10 µM): -0.0146 | probe-labelled cysteine peptide fold change (50 µM): -0.213

SRGAP2_O75044_486_TDCSLAR (UniProt O75044)
probe-labelled cysteine peptide fold change (10 µM): -0.0891 | probe-labelled cysteine peptide fold change (50 µM): -0.197

SQSTM1_Q13501_113_DHRPPCAQEAPR (UniProt Q13501)
probe-labelled cysteine peptide fold change (10 µM): -0.122 | probe-labelled cysteine peptide fold change (50 µM): -0.0823

SP140L_Q9H930_429_VFHEDCHIPPVESEK (UniProt Q9H930)
probe-labelled cysteine peptide fold change (10 µM): -0.144 | probe-labelled cysteine peptide fold change (50 µM): 0.236

SORD_Q00796_130_YNLSPSIFFCATPPDDGNLCR (UniProt Q00796)
probe-labelled cysteine peptide fold change (10 µM): 0.484 | probe-labelled cysteine peptide fold change (50 µM): 0.338

SP3_Q02447_683+686_KFVCPECSK (UniProt Q02447)
probe-labelled cysteine peptide fold change (10 µM): 0.0493 | probe-labelled cysteine peptide fold change (50 µM): 0.0729

SNX20_Q7Z614_155_HLTGNFAEEMICER (UniProt Q7Z614)
probe-labelled cysteine peptide fold change (10 µM): -0.0274 | probe-labelled cysteine peptide fold change (50 µM): -0.125
